Experimental data: publication PMC7819943, “Rice protein-binding microarrays: a tool to detect cis-acting elements near promoter regions in rice”
The list shows a part of the results.

Amino acid sequences for entries named in this document (tags omitted).
UniProt Q0JBA9, entry or part of it: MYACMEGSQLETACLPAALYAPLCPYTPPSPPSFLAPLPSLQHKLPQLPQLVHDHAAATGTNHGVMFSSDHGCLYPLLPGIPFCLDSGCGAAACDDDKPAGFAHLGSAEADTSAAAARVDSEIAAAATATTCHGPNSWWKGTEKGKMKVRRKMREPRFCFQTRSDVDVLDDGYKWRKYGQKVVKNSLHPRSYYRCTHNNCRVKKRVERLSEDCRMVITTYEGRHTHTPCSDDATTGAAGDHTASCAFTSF

Target: OsWRKY34 (Oryza sativa, UniProt Q0JBA9 1-250)
Assay: protein-binding microarray (RPBM); PBS, 2% BSA, 51.3 ng/ul salmon testes DNA, 50 uM zinc acetate, 200 nM TF, 25 C, 1 h; high values mean tight binding
Details: protein: recombinant; tags: N-terminal polyhistidine and DsRed monomer fusion (pET32a); label: CyDye5-dUTP incorporated in the synthesized complementary strand; 3' TTTTT single-stranded linker to array surface; dsDNA, one strand shown
Outline: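 Binding signal is defined as the fluorescence intensity of each feature in arbitrary units, read on an Axon 4000B scanner. Transcription factors with N-terminal polyhistidine and DsRed fusions came from E. coli BL21-CodonPlus and were purified on Ni–NTA. They were incubated at 200 nM for 1 h at 25 °C on a custom Agilent array that had been made double-stranded with Cy5-dUTP, with 50 µM zinc acetate present, and the array was washed.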

| Sequence | binding signal |
| --- | --- |
| ACCGCGTCCACAGAACCACCTCACACGCGCCGCGCAACAACGGAGTCACCTAGTGCAG | 8600 fluorescence intensity (a.u.) |
| GGTGTTCAGCTTTTGCTTGACTCCTGTACCGTCTTAACATCGGAGTCACCTAGTGCAG | 10900 fluorescence intensity (a.u.) |
| TATATATATATATATATATAGACACACACATCAACAACAACGGAGTCACCTAGTGCAG | 11300 fluorescence intensity (a.u.) |
| TCCCATGTTACCGTTCATGCTGGCTTAGCTTAAGCTAATCCGGAGTCACCTAGTGCAG | 8120 fluorescence intensity (a.u.) |
| TGTTGGCAGTCCGACGTTGACCAAACTTGACTCGTCCAGACGGAGTCACCTAGTGCAG | 10100 fluorescence intensity (a.u.) |
| TCGTGGACGTCACCCCATTTTCTCCTCGCTTCCCGCGTAACGGAGTCACCTAGTGCAG | 11700 fluorescence intensity (a.u.) |
| TCACATTGTACAATCACCTAGAAATTTGCTCACTTCCATGCGGAGTCACCTAGTGCAG | 9100 fluorescence intensity (a.u.) |
| ACCCTGTTTAGGAAATATGCTGGCTCATACTACCTCCGTTCGGAGTCACCTAGTGCAG | 8610 fluorescence intensity (a.u.) |
| AACATATTATTCATTTTATTCATTGGCTAGCGGTGGCGAACGGAGTCACCTAGTGCAG | 9010 fluorescence intensity (a.u.) |
| TACGTCACTCCGTACTCCTCTCTTCCTGCCTGCCTACTCTCGGAGTCACCTAGTGCAG | 10100 fluorescence intensity (a.u.) |
| CGGCGTCATGGTCCCTCTTCCGAGCAGCAGTACGGACATCCGGAGTCACCTAGTGCAG | 8540 fluorescence intensity (a.u.) |
| GCAACACACGTACACATCACATCTCTCGATTGGCTTCCTTCGGAGTCACCTAGTGCAG | 14500 fluorescence intensity (a.u.) |
| TATATTTTCTTATAACTTAGTACCGAGCACCAGATCCAGTCGGAGTCACCTAGTGCAG | 8500 fluorescence intensity (a.u.) |
| AACTAGTCGTCGACTACATGCTCAAGCTTTATGCCGCTATCGGAGTCACCTAGTGCAG | 9780 fluorescence intensity (a.u.) |
| CTATCTCTCTCATCTTTTTTTTTTGTTTTTTCCTATGGTACGGAGTCACCTAGTGCAG | 8410 fluorescence intensity (a.u.) |
| TTGCGTTCACCGCCTATAAATACCGTTGCCTAGCGCTGTCCGGAGTCACCTAGTGCAG | 8240 fluorescence intensity (a.u.) |
| AATAGCCATCGATACACACTCCTCTTTCTTTTCTCTCTTCCGGAGTCACCTAGTGCAG | 9290 fluorescence intensity (a.u.) |
| ATCAATCCAGTCATTACAATGTCACCATGTGAACACGTATCGGAGTCACCTAGTGCAG | 8330 fluorescence intensity (a.u.) |
| TCAGCTGCGTCACCCGAGTCCTCCACTCGTCTCCGCTATTCGGAGTCACCTAGTGCAG | 9610 fluorescence intensity (a.u.) |
| CGCCACCCTTCATCGCCAGAGTCACGACCACCATCGCCTCCGGAGTCACCTAGTGCAG | 8250 fluorescence intensity (a.u.) |
| TCCAGATATCCCGATACTTTCCATTCAAATTTTAATTTCTCGGAGTCACCTAGTGCAG | 9050 fluorescence intensity (a.u.) |

Some of the entries so far, in CSV form:
Sequence,binding signal
CGGCGTCATGGTCCCTCTTCCGAGCAGCAGTACGGACATCCGGAGTCACCTAGTGCAG,8540 fluorescence intensity (a.u.)
GCAACACACGTACACATCACATCTCTCGATTGGCTTCCTTCGGAGTCACCTAGTGCAG,14500 fluorescence intensity (a.u.)
TATATTTTCTTATAACTTAGTACCGAGCACCAGATCCAGTCGGAGTCACCTAGTGCAG,8500 fluorescence intensity (a.u.)
AACTAGTCGTCGACTACATGCTCAAGCTTTATGCCGCTATCGGAGTCACCTAGTGCAG,9780 fluorescence intensity (a.u.)

(further entries)

| Sequence | binding signal |
| --- | --- |
| TTATGAATACGATCTACTTATTTGCTCTTCCTGTAGTTATCGGAGTCACCTAGTGCAG | 10800 fluorescence intensity (a.u.) |
| GCACGCTGTTAACTGAAACGCTTTTGACTGACGGGTGGGACGGAGTCACCTAGTGCAG | 8160 fluorescence intensity (a.u.) |
| TCTGCTCATCTCGGTTGGATCCATCCGTCCGTCGTCTCCTCGGAGTCACCTAGTGCAG | 8760 fluorescence intensity (a.u.) |
| CACCCTAATCGCCGCCCGCGCCGTCTCCCACCTCGCCGGTCGGAGTCACCTAGTGCAG | 8490 fluorescence intensity (a.u.) |
| TGTGCCCAGTGACCATATGCTGATGCAGGCTATAAACTTTCGGAGTCACCTAGTGCAG | 8150 fluorescence intensity (a.u.) |
| CGGATTCGTTTCCAATTCCCGGCTCGGTTTGATATGTTTCCGGAGTCACCTAGTGCAG | 10700 fluorescence intensity (a.u.) |
| GGGTCGGGCCATGTATGCGCTGTAGTCAACGGCCCGTACGCGGAGTCACCTAGTGCAG | 9830 fluorescence intensity (a.u.) |
| TGAATCCGGCTAGCATCTCTTTACTTGGTTCCGTCTTCTCCGGAGTCACCTAGTGCAG | 11700 fluorescence intensity (a.u.) |
| GCCCCTGGACCAAATCAACATCTCTACCAGTATCGTTCTCCGGAGTCACCTAGTGCAG | 10200 fluorescence intensity (a.u.) |
| TGTTCTTTTTTTTCCTGGCACCTGTTCTTTTTGCTAGAGGCGGAGTCACCTAGTGCAG | 8290 fluorescence intensity (a.u.) |
| TAATTCCTCCTTTATGCATGTACCCCTATATCTAGGATTTCGGAGTCACCTAGTGCAG | 9180 fluorescence intensity (a.u.) |
| TCACATTTCGGTACGGCCCATTTGTCCATTCGGCCCATGTCGGAGTCACCTAGTGCAG | 12500 fluorescence intensity (a.u.) |
| TACAAGCCACATTTTCAAATCGGTCGTCTCACTTTTTCCTCGGAGTCACCTAGTGCAG | 8230 fluorescence intensity (a.u.) |
| GAACTTATTTTACTGCAATTGTTTGCATCACTTATTCTAACGGAGTCACCTAGTGCAG | 9570 fluorescence intensity (a.u.) |
| GTGCCTCTTATCTGTCGCCTGTCGCCTGTCGCCCAAGCCTCGGAGTCACCTAGTGCAG | 10700 fluorescence intensity (a.u.) |
| TTATATTTCCTGTTGATTCTATTTTTTTATTTCCAATGTACGGAGTCACCTAGTGCAG | 8070 fluorescence intensity (a.u.) |
| AATTATTTCTCGTCTTCAATTTGTCCTGGACCGTACCAAACGGAGTCACCTAGTGCAG | 9940 fluorescence intensity (a.u.) |
| ATGTAAATTGGTCAGACCCCTTTCTCTCACGTTGACCCTTCGGAGTCACCTAGTGCAG | 8650 fluorescence intensity (a.u.) |
| GAGTGAAATGACGGAACGTGGGGTGGGGTGGGCCTGGGCTCGGAGTCACCTAGTGCAG | 10100 fluorescence intensity (a.u.) |
| TTGTTTCGCTTATTCATATGCTTATTCGAATCACTTATTTCGGAGTCACCTAGTGCAG | 11800 fluorescence intensity (a.u.) |
| GGCCGGGCGAGGCGCTGGGAGGTGGCGGCTAGCGGCGGGGCGGAGTCACCTAGTGCAG | 8500 fluorescence intensity (a.u.) |
